Some of these results come from one statement about several compounds together.
Biological target: T1, KRAS protein (His-tagged GDP-loaded G12D 1-169) (Homo sapiens, UniProt P01116, G12D)
T1 construct: His-tagged GDP-loaded G12D 1-169
Test: Covalent modification of KRAS protein, intact-protein LC-MS
Format: binding
Settings: assayed under comparable conditions as K-Ras G12S
Experimental: Test compounds are prepared as 10 mM stock solutions in DMSO (Fisher cat#BP231-100). KRAS protein (His-tagged GDP-loaded wildtype 1-169, His-tagged GDP-loaded G12S 1-169 or His-tagged GDP-loaded G12D 1-169) is diluted to ~2 µM in appropriate buffer (e.g., a Hepes buffer at physiological conditions). For testing KRAS modification, compounds are diluted to 50X final test concentration in DMSO in 96-well storage plates. 2 µl of the diluted 50X compounds are added to appropriate wells in the PCR plate (Fisher cat#AB-0800). […] of the stock protein solution is added to each well of the 96-well PCR plate. Reactions are mixed carefully. The plate is sealed well with aluminum plate seal, and stored in drawer at room temperature for 24hrs. 5 µl of 2% formic acid (Fisher cat#A1 17-50) in MilliQ H2O is then added to each well followed by mixing with a pipette. The plate is then resealed with aluminum seal and stored until mass spectrometry analysis.
The extent of covalent modification of KRAS proteins was determined by liquid chromatography electrospray mass spectrometry analysis of the intact proteins on a Thermo Q-Exactive Plus mass spectrometer. […] The recorded protein mass spectrum was deconvoluted from the raw data file using Protein Deconvolution v4.0 (Thermo). […]

## N#Cc1c(N)sc2c(F)ccc(-c3c(Cl)cc4c(N[C@H]5C[C@H]6CC[C@@H](C5)N6C(=O)n5cncn5)nc(OC[C@@]56CCCN5C[C@H](F)C6)nc4c3F)c12 [Compound A257, 4-(4-(((1R,3r,5S)-8-(1H-1,2,4-triazole-1-carbonyl)-8-azabicyclo[3.2.1]octan-3-yl)amino)-6-chloro-8-fluoro-2-(((2R,7aS)-2-fluorotetrahydro-1H-pyrrolizin-7 a(5H)-yl)methoxy)quinazolin-7-yl)-2-amino-7-fluorobenzo[b]thiophene-3-carbonitrile]
  labeling of K-Ras G12D: essentially no detectable labeling

Source: EP4389751A1, “HETEROCYCLIC COMPOUNDS AND USES THEREOF” (Kumquat Biosciences Inc., priority 2021, dated 2024)
